Data reported in PMC6901540.
These are yes or no findings as the source states them, for the method shown. In cells and extracts the contact can be indirect. Some results given as binding are weak or reduced against the parent protein; the word gives no strength. Where a sequence is shown, tags or fusion partners need not be part of it.

Amino acid sequences for entries named in this document (tags omitted).
UniProt P23771: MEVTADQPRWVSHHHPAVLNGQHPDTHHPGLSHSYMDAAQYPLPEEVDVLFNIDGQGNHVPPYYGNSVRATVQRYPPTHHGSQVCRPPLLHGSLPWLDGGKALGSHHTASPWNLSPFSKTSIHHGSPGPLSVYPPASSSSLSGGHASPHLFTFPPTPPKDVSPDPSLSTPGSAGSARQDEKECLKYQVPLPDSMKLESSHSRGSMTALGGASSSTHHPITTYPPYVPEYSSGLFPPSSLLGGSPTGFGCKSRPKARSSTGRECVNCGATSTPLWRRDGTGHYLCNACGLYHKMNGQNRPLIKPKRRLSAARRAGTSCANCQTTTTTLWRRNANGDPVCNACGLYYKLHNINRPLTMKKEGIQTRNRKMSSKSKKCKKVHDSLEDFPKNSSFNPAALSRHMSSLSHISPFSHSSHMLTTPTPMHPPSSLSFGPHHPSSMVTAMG

Columns and labels:
[1] = molecular target: T1, FLAG-tagged LMO1 (overexpressed in Kelly neuroblastoma cells) (human) (UniProt P25800); experiment: co-IP; FLAG-tagged LMO1 overexpressed in Kelly neuroblastoma cells; endogenous GATA3 and LDB1
T1 sequence: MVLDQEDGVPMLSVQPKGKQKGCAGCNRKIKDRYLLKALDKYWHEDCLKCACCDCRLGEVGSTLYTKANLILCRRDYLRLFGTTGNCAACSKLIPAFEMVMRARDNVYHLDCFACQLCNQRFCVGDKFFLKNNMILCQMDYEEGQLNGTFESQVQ

[2] = molecular target: T2, FLAG-tagged LMO1 (overexpressed in 293T cells) (human) (UniProt P25800); experiment: co-IP; FLAG-tagged LMO1 with GATA3 and LDB1, overexpressed in 293T cells
T2 sequence: T1 sequence

binding [1] | binding [2] | Substance
binds |  | endogenous GATA3 (Kelly neuroblastoma cells) (from UniProt P23771 1-443)
 | binds | GATA3 (in 293T cells) (from UniProt P23771 1-443)
